Reference: paper PMC4129401
Numbering of substitutions follows the chain as printed. These are yes or no findings as the source states them, for the method shown. Binding seen in cells or lysates may run through a third protein. Where a sequence is shown, tags or fusion partners need not be part of it.

Tests used:
Test in all cases: co-IP; HEK293T cells, cosynthesis for 48 hr; lysis in 50 mM Tris-HCl pH 7.5, 150 mM NaCl, 0.5% Triton X-100; anti-FLAG M2 agarose, 5 hr at 4°C; immunoblot with anti-HA or anti-FLAG
[1] = target: T1, 3×HA-POC1B-p.Gln67del (human) (UniProt Q8TC44)
T1 sequence: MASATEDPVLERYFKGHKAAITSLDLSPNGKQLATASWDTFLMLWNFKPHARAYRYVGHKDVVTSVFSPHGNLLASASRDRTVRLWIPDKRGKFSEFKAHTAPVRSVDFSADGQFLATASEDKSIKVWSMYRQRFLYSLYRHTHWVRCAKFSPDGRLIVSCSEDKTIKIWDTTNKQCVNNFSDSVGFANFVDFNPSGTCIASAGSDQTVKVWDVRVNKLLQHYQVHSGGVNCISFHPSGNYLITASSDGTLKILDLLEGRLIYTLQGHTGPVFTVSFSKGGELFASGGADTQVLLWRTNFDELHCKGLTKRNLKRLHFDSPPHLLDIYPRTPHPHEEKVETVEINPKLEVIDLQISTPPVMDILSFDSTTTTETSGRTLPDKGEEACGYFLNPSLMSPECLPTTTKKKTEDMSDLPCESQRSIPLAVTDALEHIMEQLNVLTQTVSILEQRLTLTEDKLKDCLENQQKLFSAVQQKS

[2] = target: T2, 3×HA-POC1B-p.Arg106Pro (human) (UniProt Q8TC44)
T2 sequence: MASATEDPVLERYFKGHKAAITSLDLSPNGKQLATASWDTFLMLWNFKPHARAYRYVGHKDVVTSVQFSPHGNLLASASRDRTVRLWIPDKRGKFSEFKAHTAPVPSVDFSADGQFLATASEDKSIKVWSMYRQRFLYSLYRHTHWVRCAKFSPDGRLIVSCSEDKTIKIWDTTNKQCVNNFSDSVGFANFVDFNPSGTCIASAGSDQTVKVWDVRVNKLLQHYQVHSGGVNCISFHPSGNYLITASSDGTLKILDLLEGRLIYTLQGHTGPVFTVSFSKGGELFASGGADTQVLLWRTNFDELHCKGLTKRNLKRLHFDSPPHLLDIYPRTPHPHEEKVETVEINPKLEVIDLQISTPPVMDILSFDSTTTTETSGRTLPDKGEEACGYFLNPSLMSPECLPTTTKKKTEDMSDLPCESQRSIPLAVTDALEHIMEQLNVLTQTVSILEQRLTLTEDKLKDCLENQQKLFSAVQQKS

[3] = target: T3, 3×HA-POC1B wild-type (full-length, 478 amino acids) (human) (UniProt Q8TC44)
T3 sequence: T2 sequence with P106R

[4] = target: T4, 3×FLAG-FAM161A (full-length) (human) (UniProt Q3B820)
T4 sequence: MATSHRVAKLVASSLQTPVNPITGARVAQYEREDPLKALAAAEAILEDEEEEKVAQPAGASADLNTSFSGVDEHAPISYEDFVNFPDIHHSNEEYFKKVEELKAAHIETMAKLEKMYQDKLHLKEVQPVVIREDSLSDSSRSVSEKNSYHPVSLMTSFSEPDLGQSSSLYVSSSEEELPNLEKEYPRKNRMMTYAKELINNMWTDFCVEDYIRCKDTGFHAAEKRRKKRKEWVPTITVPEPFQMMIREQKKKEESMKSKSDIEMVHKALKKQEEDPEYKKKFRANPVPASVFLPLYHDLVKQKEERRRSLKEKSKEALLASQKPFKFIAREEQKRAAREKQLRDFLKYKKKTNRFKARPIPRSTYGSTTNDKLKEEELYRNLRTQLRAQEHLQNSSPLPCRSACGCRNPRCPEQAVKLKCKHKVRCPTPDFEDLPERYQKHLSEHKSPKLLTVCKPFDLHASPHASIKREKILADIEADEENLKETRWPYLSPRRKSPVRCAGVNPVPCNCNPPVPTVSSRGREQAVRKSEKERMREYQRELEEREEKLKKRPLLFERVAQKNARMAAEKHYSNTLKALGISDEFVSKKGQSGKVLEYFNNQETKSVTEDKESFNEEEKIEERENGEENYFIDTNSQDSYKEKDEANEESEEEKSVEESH

Measured: binding

B1: p63 (protein, UniProt Q9H3D4 1-680)
chain: MNFETSRCATLQYCPDPYIQRFVETPAHFSWKESYYRSTMSQSTQTNEFLSPEVFQHIWDFLEQPICSVQPIDLNFVDEPSEDGATNKIEISMDCIRMQDSDLSDPMWPQYTNLGLLNSMDQQIQNGSSSTSPYNTDHAQNSVTAPSPYAQPSSTFDALSPSPAIPSNTDYPGPHSFDVSFQQSSTAKSATWTYSTELKKLYCQIAKTCPIQIKVMTPPPQGAVIRAMPVYKKAEHVTEVVKRCPNHELSREFNEGQIAPPSHLIRVEGNSHAQYVEDPITGRQSVLVPYEPPQVGTEFTTVLYNFMCNSSCVGGMNRRPILIIVTLETRDGQVLGRRCFEARICACPGRDRKADEDSIRKQQVSDSTKNGDGTKRPFRQNTHGIQMTSIKKRRSPDDELLYLPVRGRETYEMLLKIKESLELMQYLPQHTIETYRQQQQQQHQHLLQKQTSIQSPSSYGNSSPPLNKMNSMNKLPSVSQLINPQQRNALTPTTIPDGMGANIPMMGTHMPMAGDMNGLSPTQALPPPLSMPSTSHCTPPPPYPTDCSIVSFLARLGCSSCLDYFTTQGLTTIYQIEHYSMDDLASLKIPEQFRHAIWKGILDHRQLHEFSSPSHLLRTPSSASTVSVGSSETRGERVIDAVRFTLRQTISFPPRDEWNDFNFDMDARRNKQQRIKEEGE
no binding: [1] | [2] | [3] | [4]
